Experimental data: PubChem BioAssay AID1117319 (Southern Research Institute, 2015)
About 1,500 (0.58%) of roughly 260,000 compounds were called active. This list was built around the results that the source calls inconclusive (neither active nor inactive); the mix of calls is not that of the screen.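 Rule for the calls: active = inhibition above a set limit at one or more doses, reproduced on every date tested; inconclusive = results disagree between test dates, or hit never tested in dose response; inactive = the rest.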

Protein sequences, listed by entry. Tags and fused reporters are not part of them. Lines headed by an entry give the natural chain unless they say otherwise; changes in a name come on top.
UniProt P69720: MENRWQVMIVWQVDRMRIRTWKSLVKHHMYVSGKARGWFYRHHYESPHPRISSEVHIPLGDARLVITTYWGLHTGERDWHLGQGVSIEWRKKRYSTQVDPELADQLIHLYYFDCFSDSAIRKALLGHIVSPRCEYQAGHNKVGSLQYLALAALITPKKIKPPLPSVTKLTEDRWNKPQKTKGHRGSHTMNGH
UniProt P69721: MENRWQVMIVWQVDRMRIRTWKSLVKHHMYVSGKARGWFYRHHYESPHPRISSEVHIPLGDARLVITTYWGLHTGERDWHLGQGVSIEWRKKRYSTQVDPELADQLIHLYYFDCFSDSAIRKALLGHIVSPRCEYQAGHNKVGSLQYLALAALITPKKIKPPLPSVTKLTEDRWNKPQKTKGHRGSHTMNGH
UniProt P69722: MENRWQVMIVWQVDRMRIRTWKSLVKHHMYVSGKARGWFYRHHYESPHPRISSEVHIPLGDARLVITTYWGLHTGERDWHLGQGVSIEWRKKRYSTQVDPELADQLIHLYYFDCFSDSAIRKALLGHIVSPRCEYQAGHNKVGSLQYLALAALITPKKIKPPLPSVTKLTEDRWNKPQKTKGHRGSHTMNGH
UniProt P69723: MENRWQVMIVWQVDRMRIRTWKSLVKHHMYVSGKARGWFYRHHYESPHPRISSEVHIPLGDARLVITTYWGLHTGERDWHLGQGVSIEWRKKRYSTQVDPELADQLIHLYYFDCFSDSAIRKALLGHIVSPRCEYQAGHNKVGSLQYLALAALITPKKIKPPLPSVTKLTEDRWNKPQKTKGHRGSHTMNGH
UniProt Q9HC16: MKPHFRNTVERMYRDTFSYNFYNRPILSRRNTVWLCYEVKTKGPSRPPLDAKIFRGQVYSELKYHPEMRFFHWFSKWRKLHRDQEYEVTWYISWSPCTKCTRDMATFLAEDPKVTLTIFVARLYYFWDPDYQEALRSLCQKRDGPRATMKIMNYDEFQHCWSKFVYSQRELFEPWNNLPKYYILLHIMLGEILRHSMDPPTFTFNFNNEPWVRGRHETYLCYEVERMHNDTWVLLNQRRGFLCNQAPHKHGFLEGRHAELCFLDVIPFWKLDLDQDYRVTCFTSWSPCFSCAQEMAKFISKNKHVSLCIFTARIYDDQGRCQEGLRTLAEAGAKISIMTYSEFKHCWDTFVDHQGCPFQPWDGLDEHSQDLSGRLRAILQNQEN

target: Virion infectivity factor (Human immunodeficiency virus type 1 group M subtype B (isolate BH10)) + Virion infectivity factor (Human immunodeficiency virus type 1 group M subtype B (isolate BRU/LAI)) + Virion infectivity factor (Human immunodeficiency virus type 1 group M subtype B (isolate PCV12)) + Virion infectivity factor (Human immunodeficiency virus type 1 group M subtype B (isolate HXB2)) + DNA dC->dU-editing enzyme APOBEC-3G (Homo sapiens) (UniProt P69720+P69721+P69722+P69723+Q9HC16); assay: inhibitors of Vif binding to APOBEC3G peptide, primary screen, biochemical, TR-FRET, GST-Vif 1-94, biotin-A3G peptide, dose response retest (AID 1117319); conditions: stronger effect = higher value;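 note: Vif residues 1-94 fused to GST binding biotinylated APOBEC3G peptide 110-148; 0% = full assay without inhibitor and 100% = GST in place of GST-Vif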

| Structure (SMILES) | inhibition |
| --- | --- |
| CCOC(=O)C(NC(=O)Nc1ccc(O)cc1)(c1ccccc1)C(F)(F)F (configuration not stated) | inconclusive: 36.1% |
| CC(=O)Nc1ccc(S(=O)(=O)NCC2CCC(C(=O)N3CCCCCC3)CC2)cc1 (configuration not stated) | inconclusive: 36.8% |
| NS(=O)(=O)c1ccc(CNC(=O)c2ccc(S(=O)(=O)NCc3ccco3)cc2)cc1 | inactive: -7.37% |
| O=C(N/N=C/c1ccco1)c1ccncc1 | inconclusive: 41.8% |
| Nc1cc(=O)nc(SCC(=O)Nc2ccccc2Cl)n1-c1ccccc1 | inactive: -1.2% |
| CCOC(=O)N1CCN(c2nc3ccc(C(=O)c4ccccc4)cc3n3cnnc23)CC1 | inconclusive: 43% |
| CC(C)C[C@H](N)c1nnc(S(=O)(=O)Cc2cccc(F)c2)o1 | inconclusive: 26.2% |
| COC(=O)C1=C(C)N(c2ccc(OC)c(OC)c2)C(=O)/C1=C\c1ccco1 | inconclusive: 55.1% |
| N#CC1(c2nc3ccccc3[nH]2)CC1c1ccc2c(c1)OCO2 (configuration not stated) | inconclusive: 38.6% |
| CCc1ccc(O)c(N=Cc2cccc(C)c2O)c1 | inconclusive: 36% |
| CC(C)(C)NS(=O)(=O)c1ccc2nc(NC(=O)Cc3cccs3)sc2c1 | inconclusive: 47.3% |
| COc1ccc(N2CCN(C(=O)COC(=O)c3oc4ccc(OC)cc4c3C)CC2)cc1 | inactive: 1.73% |
| CC1C/C(=N/NC(=O)c2cccs2)CC(C)(C)C1 (configuration not stated) | inconclusive: 26.1% |
| Cc1[nH]nc2c1/C(=N/O)CC(c1ccccc1)C2 (configuration not stated) | inconclusive: 36.1% |
| COc1cc2c(cc1OC)CN(C(=S)NC(=O)c1ccccc1)CC2 | inconclusive: 35.8% |
| CCCCCCCNC1=CC(=O)CC(c2ccco2)C1 (configuration not stated) | inconclusive: 46.8% |
| COc1cc(/C=C2/C(=O)NN(c3cccc(C)c3)C2=O)cc([N+](=O)[O-])c1O | inconclusive: 37.2% |
| Cc1occc1C(=O)NC1CCCN(Cc2ccc(CC(C)C)cc2)C1 (configuration not stated) | inconclusive: 33% |
| CC(C)=NNc1nc2c(c(=O)[nH]c(=O)n2C)n1CCc1ccccc1 | inconclusive: 48.1% |

| Structure (SMILES) | inhibition |
| --- | --- |
| O=C(O)c1cccc(-n2cccc2/C=C2/NC(=O)N(Cc3ccccc3F)C2=O)c1 | inconclusive: 43.6% |
| CCC(CC)NCc1ccc2c(c1)c1ccccc1n2CC | inconclusive: 45.2% |
| N#Cc1cccc(NC(=O)COC(=O)CCc2nc3ccccc3c(=O)[nH]2)c1 | inconclusive: 39.8% |
| Oc1ccc2n[nH]nc2c1 | inconclusive: 38% |
| Cc1cc(C)c(-c2csc(Cc3nc(-c4cc5ccccc5oc4=O)cs3)n2)cc1C | inconclusive: 46.1% |
| Cc1cc(C(C)(C)C)ccc1OCCn1ccnc1 | inconclusive: 50.9% |
| Cc1nn(C)c(C)c1NC(=O)CC12CC3CC(CC(C3)C1)C2 | inconclusive: 35.2% |
| CCOC(=O)C(=O)CC(=O)c1ccc2c(c1)OCCO2 | inconclusive: 43.7% |
| CC(=O)c1ccc(NC(=S)Nc2cccc3cnccc23)cc1 | inconclusive: 34.4% |
| CCOc1ccc(S(=O)(=O)Nc2ccccc2SC)c2cccnc12 | inconclusive: 43.9% |
| COC(=O)c1ccc2c(c1)NC(=O)C1CCCN21 (configuration not stated) | inconclusive: 34.5% |
| CCOC(=O)N1CCN(C(=O)C2CCN(Cc3nc(-c4ccccc4C)oc3C)CC2)CC1 | inconclusive: 50.6% |
| CN(C)NC(=O)C(NC(=O)c1ccc(N)cc1)C12CC3CC(CC(C3)C1)C2 (configuration not stated) | inconclusive: 57% |
| Brc1cnc2nc(SC/C=C/c3ccccc3)[nH]c2c1 | inconclusive: 47.7% |
| Cc1c(C(=O)N/N=C/c2ccc(O)c(Br)c2)sc(N)c1C#N | inconclusive: 40.4% |
| O=C(Cn1c(C(=O)NCCCN2CCOCC2)cc2sccc21)c1ccccc1 | inconclusive: 41% |
| COc1cc(C(=O)NNC(=O)CN2C(=O)NC(C)(c3ccc(C)cc3)C2=O)cc(OC)c1OC (configuration not stated) | inconclusive: 36% |
| O=C(CCCCn1ccc(=O)[nH]c1=O)Nc1ccc(O)c(C(=O)O)c1 | inactive: -11.5% |
| O=C1c2ccccc2C(=O)N1CCc1csc(-c2ccccc2)n1 | inactive: 0.09% |

| Structure (SMILES) | inhibition |
| --- | --- |
| O=C(NCCN1CCN(Cc2ccccc2)CC1)C1CC(=O)N(C2CCCC2)C1 (configuration not stated) | inconclusive: 53.4% |
| C=CCNc1nc2c(c(=O)n(C)c(=O)n2C)n1Cc1ccc(F)cc1 | inconclusive: 47.5% |
| Cn1c(=O)cc(SCC(=O)NCC2COc3ccccc3O2)c2ccccc21 (configuration not stated) | inconclusive: 44.9% |
| COc1ccc(OC)c(S(=O)(=O)N2C(C)CCCC2C)c1 (configuration not stated) | inconclusive: 38.2% |
| Cc1ccc(NC(=O)CN2C(=O)C3CCCCN3C(=O)c3ccccc32)cc1 (configuration not stated) | inconclusive: 39.7% |
| Cc1nn(Cc2ccc(Cl)cc2Cl)c(C)c1NC(=O)CCl | inconclusive: 41% |
| COc1ccc(C(=O)NC(=S)Nc2ccccc2N2CCOCC2)cc1Br | inconclusive: 47.6% |
| COc1cccc2cc(C(=O)N3CCN(C(=O)c4ccccc4)CC3)c(=O)oc12 | inconclusive: 36.9% |
| Cc1cc(OCCCCOc2ccc(C#N)cc2)ccc1[N+](=O)[O-] | inconclusive: 58.5% |
| O=C(CCS(=O)(=O)c1ccc(Br)cc1)Nc1cc(F)ccc1F | inconclusive: 50.2% |
| O=C(c1cccc(F)c1)N1CCc2ccccc2C1 | inconclusive: 59.2% |
| COc1cccc(CNC(=O)CCC2CCCN(c3cc(C)nc(N4CCCC4)n3)C2)c1 (configuration not stated) | inconclusive: 43.5% |
| Cc1ccc(-n2c(-c3cnccn3)n[nH]c2=S)cc1 | inconclusive: 41.8% |
| CNCC(O)CN1CCN(c2ccccc2OC)CC1 (configuration not stated) | inconclusive: 38.5% |
| Cc1nn(-c2ccccc2)c(N)c1N=Nc1cccc(S(=O)(=O)N2CCOCC2)c1 | inconclusive: 47.6% |
| CCOC(=O)c1ccc(CC(=O)c2oc3cc(O)ccc3c2C)o1 | inactive: 29.3% |
| Cc1cc(-c2cc(N)n(-c3ccccc3)n2)c(C)n1C1CCCC1 | inconclusive: 32.9% |
| CC[n+]1ccc(C)c2cc(SC(F)(F)F)ccc21 | inconclusive: 55.3% |
| CN(C(=O)COC(=O)c1cc(-c2ccc(Cl)s2)nc2ccccc12)C1CCS(=O)(=O)C1 (configuration not stated) | inactive: -9.51% |

Retrieved by structure from the list above:

| Structure (SMILES) | inhibition |
| --- | --- |
| COc1cccc(CNC(=O)CCC2CCCN(c3cc(C)nc(N4CCCC4)n3)C2)c1 (configuration not stated) | inconclusive: 43.5% |
| O=C(c1cccc(F)c1)N1CCc2ccccc2C1 | inconclusive: 59.2% |
